PubChem BioAssay AID1053208, Peter MacCallum Cancer Centre, 2014
Shown is a random part of about 17,000 reagents tested. In the full data, 788 (4.7%) got an active call. 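Calls rest on z-score classes alone; an extra cut-off of viability at most 70% of control was not applied to them.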 A reagent listed more than once was tested more than once; the source does not tell the runs apart.

- Screen: 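Synthetic lethal interactions between gene loss and doxorubicin in osteosarcoma cells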 (primary screen)
- Cells: mouse osteosarcoma cells, early-passage culture from an engineered mouse model of fibroblastic bone tumour
- Reagents: siRNA pool against mouse genes, 40 nM
- Time to read-out: about 120 h (48 h before drug, then 72 h with drug)
- Treatment: doxorubicin 100 nM for 72 h, roughly 30-40% inhibitory dose
- Measurement: 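Viability read as ATP luminescence after 72 h of 100 nM doxorubicin or none, duplicate wells averaged, scaled to non-targeting siRNA, then expressed as robust z-scores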
- Direction: viability z-score with doxorubicin and doxorubicin viability vs non-targeting: higher = more viable cells under doxorubicin; viability z-score without drug: higher = more viable cells with knock-down alone; z-score of drug to no-drug ratio: higher = less drug sensitisation by knock-down
- Hit rule: 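a pool counts as active when its viability z-score with doxorubicin is -2 or below and its z-score without drug lies between -2 and 2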

gene symbol | combined z-score class | viability z-score with doxorubicin | viability z-score without drug | z-score of drug to no-drug ratio | doxorubicin viability vs non-targeting | Call
B430209F14Rik (GeneID 105246034) | no change with or without drug | -1.12 | -0.51 | -0.79 | 0.84 | inactive
Cd209a (GeneID 170786) | no change with or without drug | -1.35 | 0.51 | -1.57 | 0.82 | inactive
Chek2 (GeneID 50883) | no change with or without drug | -0.45 | -0.17 | -0.22 | 0.9 | inactive
Acr (GeneID 11434) | no change with or without drug | 0.67 | -0.84 | 1.46 | 1 | inactive
Mospd1 (GeneID 70380) | low cell count without drug only | -1.57 | -2.19 | 0 | 0.8 | inactive
Pofut1 (GeneID 140484) | no change with or without drug | 0 | 0.51 | -0.22 | 0.94 | inactive
Cxcl13 (GeneID 55985) | no change with or without drug | 0 | 0.34 | -0.11 | 0.94 | inactive
Plscr3 (GeneID 70310) | no change with or without drug | -0.45 | -0.17 | -0.22 | 0.9 | inactive
Supt4a (GeneID 20922) | no change with or without drug | 0.34 | 0.34 | 0.22 | 0.97 | inactive
Wbp4 (GeneID 22380) | high cell count with and without drug | 2.36 | 2.87 | 0.56 | 1.15 | inactive
Coa3 (GeneID 52469) | no change with or without drug | -0.67 | -1.18 | 0.22 | 0.88 | inactive
Pnkp (GeneID 59047) | no change with or without drug | 0.67 | 0.67 | 0.34 | 1 | inactive
Pcsk9 (GeneID 100102) | no change with or without drug | -0.22 | 1.18 | -0.9 | 0.92 | inactive
Rnf144a (GeneID 108089) | no change with or without drug | 0 | 0.17 | 0 | 0.94 | inactive
Pmis2 (GeneID 74927) | low cell count with doxorubicin only | -2.36 | -0.51 | -2.14 | 0.73 | active
Il11 (GeneID 16156) | no change with or without drug | 0.67 | 1.18 | 0 | 1 | inactive
Myl6b (GeneID 216459) | high cell count without drug only | 1.01 | 2.19 | -0.34 | 1.03 | inactive
Ccr5 (GeneID 12774) | no change with or without drug | -0.79 | 1.01 | -1.35 | 0.87 | inactive
Prrx1 (GeneID 18933) | no change with or without drug | -0.22 | -0.51 | 0.22 | 0.92 | inactive
Ccdc180 (GeneID 381522) | no change with or without drug | -1.57 | -0.17 | -1.46 | 0.8 | inactive
Ppp1r16a (GeneID 73062) | no change with or without drug | 1.35 | 1.18 | 0.67 | 1.06 | inactive
Oas1d (GeneID 100535) | no change with or without drug | -1.35 | -1.69 | -0.22 | 0.82 | inactive

A stretch taken from the entries so far, as a working copy:
gene symbol | combined z-score class | viability z-score with doxorubicin | viability z-score without drug | z-score of drug to no-drug ratio | doxorubicin viability vs non-targeting | Call
Cxcl13 (GeneID 55985) | no change with or without drug | 0 | 0.34 | -0.11 | 0.94 | inactive
Plscr3 (GeneID 70310) | no change with or without drug | -0.45 | -0.17 | -0.22 | 0.9 | inactive
Supt4a (GeneID 20922) | no change with or without drug | 0.34 | 0.34 | 0.22 | 0.97 | inactive
Wbp4 (GeneID 22380) | high cell count with and without drug | 2.36 | 2.87 | 0.56 | 1.15 | inactive
Coa3 (GeneID 52469) | no change with or without drug | -0.67 | -1.18 | 0.22 | 0.88 | inactive
Pnkp (GeneID 59047) | no change with or without drug | 0.67 | 0.67 | 0.34 | 1 | inactive
Pcsk9 (GeneID 100102) | no change with or without drug | -0.22 | 1.18 | -0.9 | 0.92 | inactive
Rnf144a (GeneID 108089) | no change with or without drug | 0 | 0.17 | 0 | 0.94 | inactive

The list goes on.
gene symbol | combined z-score class | viability z-score with doxorubicin | viability z-score without drug | z-score of drug to no-drug ratio | doxorubicin viability vs non-targeting | Call
Emc2 (GeneID 66736) | no change with or without drug | -1.12 | 0.67 | -1.46 | 0.84 | inactive
Wdr48 (GeneID 67561) | no change with or without drug | 0.67 | 0.51 | 0.45 | 1 | inactive
Or10g1b (GeneID 258268) | no change with or without drug | 0.56 | -0.51 | 1.12 | 0.99 | inactive
Ugt3a2 (GeneID 105887) | no change with or without drug | -1.35 | 0 | -1.35 | 0.82 | inactive
Klrk1 (GeneID 27007) | low cell count with doxorubicin only | -2.7 | -1.52 | -1.91 | 0.7 | active
Alox5 (GeneID 11689) | no change with or without drug | 1.12 | 0.17 | 1.12 | 1.04 | inactive
Dynlt1b (GeneID 21648) | no change with or without drug | -1.46 | -0.34 | -1.24 | 0.81 | inactive
Zfyve21 (GeneID 68520) | no change with or without drug | -0.9 | -0.51 | -0.56 | 0.86 | inactive
Prdm16 (GeneID 70673) | no change with or without drug | 1.46 | 1.85 | 0.34 | 1.07 | inactive
Clec9a (GeneID 232414) | no change with or without drug | -1.91 | -1.18 | -1.12 | 0.77 | inactive
Map3k19 (GeneID 22625) | no change with or without drug | 0.45 | -1.18 | 1.46 | 0.98 | inactive
Rnf215 (GeneID 71673) | no change with or without drug | -0.67 | -0.51 | -0.22 | 0.88 | inactive
Pate6 (GeneID 68171) | no change with or without drug | 1.46 | 0.34 | 1.35 | 1.07 | inactive
Mylk (GeneID 107589) | no change with or without drug | 1.46 | -0.17 | 1.8 | 1.07 | inactive
Mpc2 (GeneID 70456) | no change with or without drug | 0.9 | 0.17 | 0.9 | 1.02 | inactive
Usp7 (GeneID 252870) | no change with or without drug | -0.45 | 0.17 | -0.45 | 0.9 | inactive
Fcamr (GeneID 64435) | no change with or without drug | -0.67 | 1.18 | -1.35 | 0.88 | inactive
Dcx (GeneID 13193) | no change with or without drug | 1.8 | 1.52 | 0.9 | 1.1 | inactive
Uri1 (GeneID 19777) | high cell count without drug only | -0.67 | 2.19 | -1.91 | 0.88 | inactive
Nkx2-6 (GeneID 18092) | low cell count with and without drug | -2.47 | -2.19 | -1.12 | 0.72 | inactive
Nfkbiz (GeneID 80859) | no change with or without drug | -0.11 | -0.51 | 0.34 | 0.93 | inactive
Zfp273 (GeneID 212569) | no change with or without drug | -1.01 | -0.84 | -0.45 | 0.85 | inactive
Adgre1 (GeneID 13733) | no change with or without drug | 0.67 | 1.18 | 0 | 1 | inactive
Gpatch11 (GeneID 53951) | no change with or without drug | 0.45 | -0.34 | 0.79 | 0.98 | inactive
1700055D18Rik (GeneID 73405) | no change with or without drug | 0.67 | 1.18 | 0 | 1 | inactive
Hikeshi (GeneID 67669) | high cell count with and without drug | 2.25 | 2.19 | 0.9 | 1.14 | inactive
Scrib (GeneID 105782) | no change with or without drug | 0.79 | -0.51 | 1.35 | 1.01 | inactive
Ints6l (GeneID 236790) | no change with or without drug | 0.45 | 0.17 | 0.45 | 0.98 | inactive
Or2f1b (GeneID 258988) | no change with or without drug | 1.01 | 0.84 | 0.56 | 1.03 | inactive
Rbm3 (GeneID 19652) | no change with or without drug | -0.9 | -1.18 | 0 | 0.86 | inactive
Cpne5 (GeneID 240058) | no change with or without drug | 0.9 | 0.51 | 0.67 | 1.02 | inactive
Fam171a2 (GeneID 217219) | no change with or without drug | 0.9 | 0.51 | 0.67 | 1.02 | inactive
Prmt3 (GeneID 71974) | no change with or without drug | 0.56 | 1.01 | 0 | 0.99 | inactive
Trpd52l3 (GeneID 66745) | low cell count without drug only | -1.24 | -2.53 | 0.67 | 0.83 | inactive
Trpd52l3 (GeneID 66745) | no change with or without drug | 0.11 | 0.17 | 0.11 | 0.95 | inactive
Esyt3 (GeneID 272636) | no change with or without drug | -0.22 | 1.52 | -1.12 | 0.92 | inactive
Mocs1 (GeneID 56738) | no change with or without drug | 1.35 | 0.51 | 1.12 | 1.06 | inactive
Abcd4 (GeneID 19300) | no change with or without drug | 0.34 | 0.17 | 0.34 | 0.97 | inactive
Chmp3 (GeneID 66700) | no change with or without drug | -1.12 | -0.17 | -1.01 | 0.84 | inactive
Nat14 (GeneID 269854) | no change with or without drug | -1.57 | -1.85 | -0.34 | 0.8 | inactive
Csrp2 (GeneID 13008) | no change with or without drug | -0.56 | 0.51 | -0.79 | 0.89 | inactive
